Source: article PMC8608904
Numbering of substitutions follows the chain as printed. Results are given in words; binding and its absence hold for the method and conditions named. In cells and extracts the contact can be indirect.

Protein sequences, listed by entry. Tags and fused reporters are not part of them. Lines headed by an entry give the natural chain unless they say otherwise; changes in a name come on top. Residues count along the entry.
UniProt Q8K0P3: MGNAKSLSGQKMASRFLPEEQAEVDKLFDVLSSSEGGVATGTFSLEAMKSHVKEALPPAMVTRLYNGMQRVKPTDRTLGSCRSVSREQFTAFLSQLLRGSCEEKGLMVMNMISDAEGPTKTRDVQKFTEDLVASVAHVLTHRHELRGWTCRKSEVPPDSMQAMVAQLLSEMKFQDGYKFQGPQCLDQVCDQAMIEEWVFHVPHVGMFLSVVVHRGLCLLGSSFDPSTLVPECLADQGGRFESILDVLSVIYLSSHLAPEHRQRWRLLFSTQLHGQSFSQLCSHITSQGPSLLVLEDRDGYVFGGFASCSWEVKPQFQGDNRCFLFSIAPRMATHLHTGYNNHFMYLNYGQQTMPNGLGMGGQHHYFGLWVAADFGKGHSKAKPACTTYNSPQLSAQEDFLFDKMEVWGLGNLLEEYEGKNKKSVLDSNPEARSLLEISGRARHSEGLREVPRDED
full-length recombinant Tldc1 (2–455): residues 2-455 of Q8K0P3
Tldc1 TLDc domain (235–455): residues 235-455 of Q8K0P3
Tldc1 (235–410): residues 235-410 of Q8K0P3
UniProt Q91YH6: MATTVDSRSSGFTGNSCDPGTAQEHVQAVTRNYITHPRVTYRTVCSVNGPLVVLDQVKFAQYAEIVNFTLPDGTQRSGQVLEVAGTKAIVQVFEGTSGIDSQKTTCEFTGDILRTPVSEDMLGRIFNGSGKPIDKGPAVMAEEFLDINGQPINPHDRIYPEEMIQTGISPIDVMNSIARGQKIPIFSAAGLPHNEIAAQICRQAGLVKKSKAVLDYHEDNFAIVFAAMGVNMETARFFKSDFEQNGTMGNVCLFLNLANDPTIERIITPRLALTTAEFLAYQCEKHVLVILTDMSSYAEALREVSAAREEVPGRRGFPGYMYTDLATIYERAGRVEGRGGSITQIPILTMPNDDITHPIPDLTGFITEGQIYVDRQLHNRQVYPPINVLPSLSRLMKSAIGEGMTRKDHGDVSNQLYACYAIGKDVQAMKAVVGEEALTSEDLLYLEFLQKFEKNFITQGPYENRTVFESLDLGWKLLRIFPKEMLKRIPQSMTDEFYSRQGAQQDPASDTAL

Experiments:
Assay in all cases: condition: approximately 14 pmol of GST-tagged protein on beads; pull-down; about 14 pmol purified GST-tagged bait on glutathione-Sepharose 4B beads, incubated with mouse kidney lysate (25 mM Tris-HCl pH 7.4, 150 mM NaCl, 5 mM EDTA, 1% Triton X-100); western blot with anti-B1; only the target purified
[1] = target: T1, G815A mutant of the TLDc domain of Ncoa7 (775–943) (mouse) (UniProt Q6DFV7)
T1 sequence: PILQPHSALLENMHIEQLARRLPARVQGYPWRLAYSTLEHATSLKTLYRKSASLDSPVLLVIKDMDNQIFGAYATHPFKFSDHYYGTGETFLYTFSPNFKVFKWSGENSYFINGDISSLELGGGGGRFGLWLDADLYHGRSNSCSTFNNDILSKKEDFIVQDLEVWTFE

[2] = target: T2, G845A mutant of the TLDc domain of Ncoa7 (775–943) (mouse) (UniProt Q6DFV7)
T2 sequence: T1 sequence with A41G, G71A

[3] = target: T3, N-terminal Ncoa7 (2–353) (mouse) (UniProt Q6DFV7)
T3 sequence: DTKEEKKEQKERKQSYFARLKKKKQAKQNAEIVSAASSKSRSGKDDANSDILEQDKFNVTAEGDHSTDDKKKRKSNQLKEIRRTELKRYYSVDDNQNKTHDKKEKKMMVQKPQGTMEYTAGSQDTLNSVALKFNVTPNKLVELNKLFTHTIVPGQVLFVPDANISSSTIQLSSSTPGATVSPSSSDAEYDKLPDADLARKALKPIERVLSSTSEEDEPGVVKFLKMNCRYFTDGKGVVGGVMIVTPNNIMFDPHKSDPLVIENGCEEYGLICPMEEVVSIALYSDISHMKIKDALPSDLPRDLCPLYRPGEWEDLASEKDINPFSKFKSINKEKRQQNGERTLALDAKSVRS

Ncoa7 (593–774) (mouse) = target: T4, Ncoa7 (593–774) (mouse) (UniProt Q6DFV7)
T4 sequence: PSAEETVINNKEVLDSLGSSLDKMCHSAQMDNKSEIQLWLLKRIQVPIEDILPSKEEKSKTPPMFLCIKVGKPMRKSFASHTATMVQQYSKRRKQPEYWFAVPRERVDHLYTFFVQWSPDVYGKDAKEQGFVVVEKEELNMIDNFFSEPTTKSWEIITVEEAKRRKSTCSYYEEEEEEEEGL

[4] = target: T5, Tbc1d24 TLDc domain (336–561) (mouse) (UniProt Q3UUG6)
T5 sequence: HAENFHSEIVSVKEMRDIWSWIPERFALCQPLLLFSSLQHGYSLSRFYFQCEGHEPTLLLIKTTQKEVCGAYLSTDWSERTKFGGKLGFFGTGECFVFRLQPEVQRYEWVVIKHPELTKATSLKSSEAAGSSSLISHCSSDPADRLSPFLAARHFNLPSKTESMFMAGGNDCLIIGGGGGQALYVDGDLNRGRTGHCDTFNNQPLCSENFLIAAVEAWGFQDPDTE

Tldc1 (235–410) (mouse) = Tldc1 (235–410) (mouse) (UniProt Q8K0P3)
[5] = target: Tldc1 TLDc domain (235–455) (mouse) (UniProt Q8K0P3)
[6] = target: full-length recombinant Tldc1 (2–455) (mouse) (UniProt Q8K0P3)
[7] = target: T6, middle Ncoa7 (354–592) (mouse) (UniProt Q6DFV7)
T6 sequence: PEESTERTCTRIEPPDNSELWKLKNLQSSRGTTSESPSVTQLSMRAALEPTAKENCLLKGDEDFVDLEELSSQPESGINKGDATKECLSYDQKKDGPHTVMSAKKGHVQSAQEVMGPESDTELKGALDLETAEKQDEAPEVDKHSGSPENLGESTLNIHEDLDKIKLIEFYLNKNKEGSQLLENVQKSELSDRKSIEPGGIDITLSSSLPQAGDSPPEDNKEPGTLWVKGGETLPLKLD

Measured: binding

B1 subunit of V-ATPase (from UniProt Q91YH6 1-513)
no binding: [1] | [2] | [3] | Ncoa7 (593–774) (mouse) | [4] | Tldc1 (235–410) (mouse) | [5] | [6] | [7]
